These are yes or no findings as the source states them, for the method shown. In cells and extracts the contact can be indirect. Some binding calls cover weakened binding; strength is not graded here. For some of these results: Where a sequence is shown, tags or fusion partners need not be part of it.
Tests used:
[1] = target: T1, DAZL (endogenous in wildtype mouse testes; full-length isoform DAZL_FL predominant) (mouse (endogenous in testes)) (UniProt Q64368); test: co-IP; testes of wildtype and Dazl^E8KO mice; blots for DAZL, EIF4G3 and PABPC1; non-immune IgG as negative control
T1 sequence: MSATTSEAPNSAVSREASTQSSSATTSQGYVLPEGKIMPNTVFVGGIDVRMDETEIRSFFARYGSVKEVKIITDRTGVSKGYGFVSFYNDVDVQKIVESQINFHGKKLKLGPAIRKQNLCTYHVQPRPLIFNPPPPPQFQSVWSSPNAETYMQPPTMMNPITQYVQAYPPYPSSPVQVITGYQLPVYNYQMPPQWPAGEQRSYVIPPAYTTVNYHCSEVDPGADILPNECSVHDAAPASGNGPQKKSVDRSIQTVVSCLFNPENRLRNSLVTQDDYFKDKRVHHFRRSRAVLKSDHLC

By UniProt entry, the sequences of proteins in these tests, tags left out.
UniProt P29341: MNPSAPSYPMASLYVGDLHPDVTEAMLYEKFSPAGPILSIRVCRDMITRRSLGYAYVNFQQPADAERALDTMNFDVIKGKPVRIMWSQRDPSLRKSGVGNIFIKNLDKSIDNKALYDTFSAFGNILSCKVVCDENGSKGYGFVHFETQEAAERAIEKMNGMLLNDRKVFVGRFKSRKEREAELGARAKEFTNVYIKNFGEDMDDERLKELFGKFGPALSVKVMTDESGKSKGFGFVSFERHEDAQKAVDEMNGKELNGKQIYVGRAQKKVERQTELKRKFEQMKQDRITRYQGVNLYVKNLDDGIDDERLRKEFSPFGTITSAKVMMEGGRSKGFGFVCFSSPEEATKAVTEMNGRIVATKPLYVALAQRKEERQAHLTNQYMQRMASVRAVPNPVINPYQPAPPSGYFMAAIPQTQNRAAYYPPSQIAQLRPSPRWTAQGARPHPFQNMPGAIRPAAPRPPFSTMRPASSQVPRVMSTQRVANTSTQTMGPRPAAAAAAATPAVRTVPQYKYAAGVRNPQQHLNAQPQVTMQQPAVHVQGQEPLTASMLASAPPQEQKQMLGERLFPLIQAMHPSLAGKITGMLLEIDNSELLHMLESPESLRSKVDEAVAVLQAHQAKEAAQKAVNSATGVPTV
UniProt Q80XI3: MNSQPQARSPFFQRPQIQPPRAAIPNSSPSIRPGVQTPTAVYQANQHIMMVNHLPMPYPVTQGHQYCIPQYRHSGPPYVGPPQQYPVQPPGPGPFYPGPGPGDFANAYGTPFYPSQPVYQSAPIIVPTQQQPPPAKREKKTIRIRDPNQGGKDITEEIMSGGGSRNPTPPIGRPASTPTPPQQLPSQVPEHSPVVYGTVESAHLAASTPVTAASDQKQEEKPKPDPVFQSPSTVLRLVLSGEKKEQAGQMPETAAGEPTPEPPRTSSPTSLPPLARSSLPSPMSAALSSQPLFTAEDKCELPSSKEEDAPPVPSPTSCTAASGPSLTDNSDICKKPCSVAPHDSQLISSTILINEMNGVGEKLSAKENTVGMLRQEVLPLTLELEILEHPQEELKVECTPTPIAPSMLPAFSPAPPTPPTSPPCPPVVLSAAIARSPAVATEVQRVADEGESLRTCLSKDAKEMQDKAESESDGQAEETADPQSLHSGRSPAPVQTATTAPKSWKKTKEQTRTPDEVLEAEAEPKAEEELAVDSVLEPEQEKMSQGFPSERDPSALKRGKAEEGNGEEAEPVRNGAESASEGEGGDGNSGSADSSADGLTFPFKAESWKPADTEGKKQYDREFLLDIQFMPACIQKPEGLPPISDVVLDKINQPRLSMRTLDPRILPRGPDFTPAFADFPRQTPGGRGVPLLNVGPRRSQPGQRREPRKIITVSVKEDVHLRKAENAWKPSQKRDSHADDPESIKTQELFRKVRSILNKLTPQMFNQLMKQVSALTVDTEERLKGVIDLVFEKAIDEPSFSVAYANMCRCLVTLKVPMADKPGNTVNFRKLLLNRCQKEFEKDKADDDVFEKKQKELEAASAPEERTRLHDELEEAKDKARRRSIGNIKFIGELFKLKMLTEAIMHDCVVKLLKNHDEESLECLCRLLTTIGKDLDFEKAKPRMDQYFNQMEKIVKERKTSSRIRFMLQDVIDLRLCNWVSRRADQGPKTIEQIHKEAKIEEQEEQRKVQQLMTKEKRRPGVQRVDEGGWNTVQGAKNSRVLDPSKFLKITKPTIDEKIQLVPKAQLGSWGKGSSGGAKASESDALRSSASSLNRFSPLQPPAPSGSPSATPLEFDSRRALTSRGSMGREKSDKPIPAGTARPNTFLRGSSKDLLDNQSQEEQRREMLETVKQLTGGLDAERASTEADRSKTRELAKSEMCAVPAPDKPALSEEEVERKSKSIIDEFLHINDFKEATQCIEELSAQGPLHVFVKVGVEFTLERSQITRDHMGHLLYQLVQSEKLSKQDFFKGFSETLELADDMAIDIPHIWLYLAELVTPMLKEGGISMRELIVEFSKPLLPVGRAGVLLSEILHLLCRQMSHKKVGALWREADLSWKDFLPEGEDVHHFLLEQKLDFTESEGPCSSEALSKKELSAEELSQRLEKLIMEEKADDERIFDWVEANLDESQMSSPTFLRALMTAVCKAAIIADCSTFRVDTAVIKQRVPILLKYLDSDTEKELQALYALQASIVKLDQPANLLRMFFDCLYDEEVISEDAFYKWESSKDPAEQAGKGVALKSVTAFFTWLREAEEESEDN

[2] = target: T2, MYC-tagged DAZL_FL (mouse) (UniProt Q64368); test: co-IP; HEK293T cells (text: HEK293) over-expressing HA-tagged PABPC1 with MYC-tagged DAZL_FL or DAZL_Sh; IgG as negative control
T2 sequence: T1 sequence

[3] = target: T3, DAZL short isoform lacking exon 8 (DAZL_Sh), endogenous in Dazl^E8KO mouse testes (mouse (endogenous in testes)) (UniProt Q64368); test: co-IP; testes of wildtype and Dazl^E8KO mice; blots for DAZL, EIF4G3 and PABPC1; non-immune IgG as negative control
T3 sequence: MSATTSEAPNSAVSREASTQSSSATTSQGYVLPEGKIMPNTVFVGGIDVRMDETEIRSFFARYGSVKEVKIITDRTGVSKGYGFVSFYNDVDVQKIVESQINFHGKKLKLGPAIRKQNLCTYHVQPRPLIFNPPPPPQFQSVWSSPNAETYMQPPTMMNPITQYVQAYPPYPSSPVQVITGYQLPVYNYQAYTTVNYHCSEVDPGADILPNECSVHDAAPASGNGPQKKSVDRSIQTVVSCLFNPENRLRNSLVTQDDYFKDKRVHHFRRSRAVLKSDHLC

binding [1] | binding [2] | binding [3] | Substance
binds |  |  | Poly(A) Binding Protein Cytoplasmic 1 (PABPC1), endogenous in mouse testes (from UniProt P29341 1-636)
 | binds |  | HA-tagged PABPC1 (from UniProt P29341 1-636)
binds |  | no binding | translation initiation factor EIF4G3, endogenous in mouse testes (from UniProt Q80XI3 1-1579)

Reference: publication PMC12623972
